Measured values reported in the supplement of paper PMC12823440, “Inhibitors supercharge kinase turnover through native proteolytic circuits” (Nature, 2025).
Counter-ions that a name gives are not always drawn. This is one part of the list. Hit calls seldom repeat between salt and free forms of one compound.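 Kinases were expressed as nanoluciferase fusions in K562 cells and luminescence was read every 4 h between 2 and 18 h as percent of control, DMSO set to 100% and a positive control to 0%. A time point counts as decreased when the signal drops significantly (2 sigma). The hit call is the authors' own, does not follow from the count of time points alone, and its rule is not shown.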

Chains of the proteins cited; added tags and fusions are not shown. Lines headed by an entry give the natural chain unless they say otherwise; changes in a name come on top.
UniProt Q9Y616: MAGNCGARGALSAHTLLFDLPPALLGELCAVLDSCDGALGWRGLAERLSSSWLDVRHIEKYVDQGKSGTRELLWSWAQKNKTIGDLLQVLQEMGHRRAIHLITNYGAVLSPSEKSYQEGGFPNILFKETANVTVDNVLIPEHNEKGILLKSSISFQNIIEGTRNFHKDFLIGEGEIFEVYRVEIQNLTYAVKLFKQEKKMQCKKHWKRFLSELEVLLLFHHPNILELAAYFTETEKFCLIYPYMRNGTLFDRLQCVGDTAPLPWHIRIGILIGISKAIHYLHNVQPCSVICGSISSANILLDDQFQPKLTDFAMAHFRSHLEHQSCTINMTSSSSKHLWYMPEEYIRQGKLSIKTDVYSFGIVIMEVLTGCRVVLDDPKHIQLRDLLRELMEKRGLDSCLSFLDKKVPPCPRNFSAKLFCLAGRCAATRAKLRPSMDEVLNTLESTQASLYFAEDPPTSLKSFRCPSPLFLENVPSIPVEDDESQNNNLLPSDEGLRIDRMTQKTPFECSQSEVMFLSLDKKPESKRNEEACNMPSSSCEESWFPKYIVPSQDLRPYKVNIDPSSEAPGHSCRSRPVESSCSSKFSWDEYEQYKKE
UniProt P23458: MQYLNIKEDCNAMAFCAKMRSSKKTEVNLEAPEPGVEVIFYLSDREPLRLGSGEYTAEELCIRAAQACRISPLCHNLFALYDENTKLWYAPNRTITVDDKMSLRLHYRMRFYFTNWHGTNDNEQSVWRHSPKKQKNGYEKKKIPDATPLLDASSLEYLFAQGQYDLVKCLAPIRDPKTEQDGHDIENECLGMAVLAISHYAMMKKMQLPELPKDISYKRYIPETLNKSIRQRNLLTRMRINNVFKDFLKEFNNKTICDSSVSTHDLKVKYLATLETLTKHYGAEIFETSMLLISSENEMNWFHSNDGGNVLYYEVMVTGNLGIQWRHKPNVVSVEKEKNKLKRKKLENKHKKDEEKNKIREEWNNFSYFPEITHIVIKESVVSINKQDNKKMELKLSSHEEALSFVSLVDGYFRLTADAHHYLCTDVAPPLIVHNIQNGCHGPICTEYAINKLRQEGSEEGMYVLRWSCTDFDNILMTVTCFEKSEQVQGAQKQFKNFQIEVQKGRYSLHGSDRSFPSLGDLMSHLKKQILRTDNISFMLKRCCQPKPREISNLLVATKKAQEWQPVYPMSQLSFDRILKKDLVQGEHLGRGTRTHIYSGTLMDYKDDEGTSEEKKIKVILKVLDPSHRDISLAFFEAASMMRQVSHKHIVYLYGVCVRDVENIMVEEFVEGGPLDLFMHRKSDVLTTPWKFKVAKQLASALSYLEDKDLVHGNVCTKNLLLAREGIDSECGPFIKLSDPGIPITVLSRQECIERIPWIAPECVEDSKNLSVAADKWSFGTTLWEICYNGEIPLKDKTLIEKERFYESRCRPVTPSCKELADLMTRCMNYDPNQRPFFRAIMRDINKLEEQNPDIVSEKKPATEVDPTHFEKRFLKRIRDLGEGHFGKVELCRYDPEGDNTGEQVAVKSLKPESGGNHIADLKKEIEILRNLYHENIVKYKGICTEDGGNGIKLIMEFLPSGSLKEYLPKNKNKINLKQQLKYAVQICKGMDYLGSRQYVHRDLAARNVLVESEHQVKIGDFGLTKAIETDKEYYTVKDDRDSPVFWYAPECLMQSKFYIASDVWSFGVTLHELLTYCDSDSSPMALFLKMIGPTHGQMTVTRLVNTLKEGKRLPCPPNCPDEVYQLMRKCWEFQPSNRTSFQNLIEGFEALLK
UniProt P06239: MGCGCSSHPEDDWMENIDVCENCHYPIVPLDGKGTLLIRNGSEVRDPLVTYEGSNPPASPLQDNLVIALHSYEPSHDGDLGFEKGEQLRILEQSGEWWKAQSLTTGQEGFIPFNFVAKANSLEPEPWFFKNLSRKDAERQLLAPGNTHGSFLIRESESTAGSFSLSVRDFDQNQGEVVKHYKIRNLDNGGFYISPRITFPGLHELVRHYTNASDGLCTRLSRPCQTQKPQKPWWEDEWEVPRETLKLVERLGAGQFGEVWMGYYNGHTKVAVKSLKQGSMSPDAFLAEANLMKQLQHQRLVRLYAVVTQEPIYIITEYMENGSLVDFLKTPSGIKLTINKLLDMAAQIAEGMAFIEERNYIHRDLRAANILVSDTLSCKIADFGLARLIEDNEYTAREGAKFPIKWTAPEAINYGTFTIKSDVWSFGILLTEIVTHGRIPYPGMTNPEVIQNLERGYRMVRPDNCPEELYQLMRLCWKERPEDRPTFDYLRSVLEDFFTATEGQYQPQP
UniProt Q8IWU2: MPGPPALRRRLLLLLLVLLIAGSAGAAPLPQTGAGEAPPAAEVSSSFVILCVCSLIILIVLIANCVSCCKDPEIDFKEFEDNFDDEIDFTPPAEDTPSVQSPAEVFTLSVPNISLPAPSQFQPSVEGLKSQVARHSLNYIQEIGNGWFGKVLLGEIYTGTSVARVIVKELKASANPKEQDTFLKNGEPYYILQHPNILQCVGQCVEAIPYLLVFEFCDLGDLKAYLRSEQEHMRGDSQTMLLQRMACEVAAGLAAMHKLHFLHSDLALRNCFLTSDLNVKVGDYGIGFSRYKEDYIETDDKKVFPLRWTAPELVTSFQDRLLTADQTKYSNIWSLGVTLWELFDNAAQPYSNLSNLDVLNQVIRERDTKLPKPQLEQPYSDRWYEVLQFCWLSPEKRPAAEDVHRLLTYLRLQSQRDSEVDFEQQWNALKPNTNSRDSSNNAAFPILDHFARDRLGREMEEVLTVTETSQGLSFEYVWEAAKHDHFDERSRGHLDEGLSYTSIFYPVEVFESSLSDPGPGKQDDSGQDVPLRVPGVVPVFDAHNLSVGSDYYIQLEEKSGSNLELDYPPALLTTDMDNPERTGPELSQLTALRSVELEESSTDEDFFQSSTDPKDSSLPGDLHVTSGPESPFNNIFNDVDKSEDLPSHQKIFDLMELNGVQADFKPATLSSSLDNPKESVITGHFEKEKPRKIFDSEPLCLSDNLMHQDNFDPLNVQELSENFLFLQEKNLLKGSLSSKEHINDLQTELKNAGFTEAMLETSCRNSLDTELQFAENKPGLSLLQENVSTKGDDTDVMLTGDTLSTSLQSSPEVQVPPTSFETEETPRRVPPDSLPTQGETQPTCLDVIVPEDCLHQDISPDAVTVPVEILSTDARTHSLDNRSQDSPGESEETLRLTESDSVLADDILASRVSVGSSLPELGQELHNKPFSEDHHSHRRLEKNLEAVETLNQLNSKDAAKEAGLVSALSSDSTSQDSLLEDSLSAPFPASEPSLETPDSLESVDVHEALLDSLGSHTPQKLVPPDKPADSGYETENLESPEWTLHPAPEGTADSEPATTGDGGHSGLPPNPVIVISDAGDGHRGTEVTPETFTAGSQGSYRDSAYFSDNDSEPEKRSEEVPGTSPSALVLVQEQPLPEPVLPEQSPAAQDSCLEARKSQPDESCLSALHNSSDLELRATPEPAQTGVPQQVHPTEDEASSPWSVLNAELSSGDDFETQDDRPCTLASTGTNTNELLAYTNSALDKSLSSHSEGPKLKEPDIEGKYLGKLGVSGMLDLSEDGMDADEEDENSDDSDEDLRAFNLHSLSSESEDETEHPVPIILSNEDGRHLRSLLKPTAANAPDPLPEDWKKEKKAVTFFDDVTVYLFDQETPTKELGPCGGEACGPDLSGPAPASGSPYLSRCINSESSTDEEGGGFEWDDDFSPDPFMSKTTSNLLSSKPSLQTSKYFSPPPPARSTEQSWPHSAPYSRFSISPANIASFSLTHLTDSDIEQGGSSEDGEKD
UniProt Q12851: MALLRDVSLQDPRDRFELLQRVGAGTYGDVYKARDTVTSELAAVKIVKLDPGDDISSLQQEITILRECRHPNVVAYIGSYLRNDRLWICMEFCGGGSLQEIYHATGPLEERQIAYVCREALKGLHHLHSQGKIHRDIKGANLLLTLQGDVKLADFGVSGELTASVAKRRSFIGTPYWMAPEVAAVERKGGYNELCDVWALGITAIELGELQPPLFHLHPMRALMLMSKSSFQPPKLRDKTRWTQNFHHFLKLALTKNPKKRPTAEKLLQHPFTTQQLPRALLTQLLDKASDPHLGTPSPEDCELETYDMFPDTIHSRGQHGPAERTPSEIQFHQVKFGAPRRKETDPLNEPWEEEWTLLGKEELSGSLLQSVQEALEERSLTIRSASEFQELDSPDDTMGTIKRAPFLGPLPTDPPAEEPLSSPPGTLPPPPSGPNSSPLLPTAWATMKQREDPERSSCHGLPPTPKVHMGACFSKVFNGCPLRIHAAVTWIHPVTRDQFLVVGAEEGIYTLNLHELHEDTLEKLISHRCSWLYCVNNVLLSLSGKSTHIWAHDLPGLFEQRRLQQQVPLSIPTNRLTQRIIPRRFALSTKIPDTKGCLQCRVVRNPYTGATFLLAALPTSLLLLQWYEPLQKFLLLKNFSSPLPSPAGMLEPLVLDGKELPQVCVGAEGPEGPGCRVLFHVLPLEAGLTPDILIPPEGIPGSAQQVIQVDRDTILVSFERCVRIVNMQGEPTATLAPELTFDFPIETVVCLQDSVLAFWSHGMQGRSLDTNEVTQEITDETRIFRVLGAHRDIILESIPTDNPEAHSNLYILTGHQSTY
UniProt P28482, whole entry: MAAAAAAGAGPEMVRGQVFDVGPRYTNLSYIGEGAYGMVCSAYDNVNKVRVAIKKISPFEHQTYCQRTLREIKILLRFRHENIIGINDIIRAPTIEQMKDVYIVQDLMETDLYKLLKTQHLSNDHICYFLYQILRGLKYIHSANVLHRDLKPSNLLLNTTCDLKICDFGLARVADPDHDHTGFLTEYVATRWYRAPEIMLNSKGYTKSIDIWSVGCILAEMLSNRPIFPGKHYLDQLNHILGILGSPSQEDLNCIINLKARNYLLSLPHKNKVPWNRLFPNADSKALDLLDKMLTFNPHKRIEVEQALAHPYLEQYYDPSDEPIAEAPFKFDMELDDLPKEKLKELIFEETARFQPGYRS
UniProt P31152, whole entry: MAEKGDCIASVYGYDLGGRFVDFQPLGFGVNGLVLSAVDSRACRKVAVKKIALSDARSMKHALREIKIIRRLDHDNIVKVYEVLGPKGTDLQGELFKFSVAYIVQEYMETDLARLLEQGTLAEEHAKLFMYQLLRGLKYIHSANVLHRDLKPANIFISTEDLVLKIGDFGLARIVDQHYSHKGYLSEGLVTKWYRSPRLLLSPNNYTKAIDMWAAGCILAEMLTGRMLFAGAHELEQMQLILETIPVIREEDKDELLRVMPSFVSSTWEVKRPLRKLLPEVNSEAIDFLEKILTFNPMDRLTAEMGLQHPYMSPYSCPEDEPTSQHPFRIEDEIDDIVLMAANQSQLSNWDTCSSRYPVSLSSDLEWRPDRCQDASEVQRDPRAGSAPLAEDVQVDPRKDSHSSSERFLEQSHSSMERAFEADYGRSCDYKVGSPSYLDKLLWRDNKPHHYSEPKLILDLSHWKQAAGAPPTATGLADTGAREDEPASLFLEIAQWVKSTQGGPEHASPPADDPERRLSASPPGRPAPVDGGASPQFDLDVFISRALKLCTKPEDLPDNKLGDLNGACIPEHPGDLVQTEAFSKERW
UniProt P49137, whole entry, looked up: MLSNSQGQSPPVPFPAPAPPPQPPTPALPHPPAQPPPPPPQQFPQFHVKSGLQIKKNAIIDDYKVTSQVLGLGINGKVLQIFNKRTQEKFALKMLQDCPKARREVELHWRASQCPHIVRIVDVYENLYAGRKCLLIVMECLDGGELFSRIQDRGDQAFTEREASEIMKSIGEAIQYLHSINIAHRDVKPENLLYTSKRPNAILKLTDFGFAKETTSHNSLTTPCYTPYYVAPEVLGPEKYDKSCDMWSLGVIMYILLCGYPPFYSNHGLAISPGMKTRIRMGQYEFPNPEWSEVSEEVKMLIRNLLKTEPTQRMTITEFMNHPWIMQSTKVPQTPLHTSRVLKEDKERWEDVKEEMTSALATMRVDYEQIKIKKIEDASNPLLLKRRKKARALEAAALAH
UniProt Q9BUB5: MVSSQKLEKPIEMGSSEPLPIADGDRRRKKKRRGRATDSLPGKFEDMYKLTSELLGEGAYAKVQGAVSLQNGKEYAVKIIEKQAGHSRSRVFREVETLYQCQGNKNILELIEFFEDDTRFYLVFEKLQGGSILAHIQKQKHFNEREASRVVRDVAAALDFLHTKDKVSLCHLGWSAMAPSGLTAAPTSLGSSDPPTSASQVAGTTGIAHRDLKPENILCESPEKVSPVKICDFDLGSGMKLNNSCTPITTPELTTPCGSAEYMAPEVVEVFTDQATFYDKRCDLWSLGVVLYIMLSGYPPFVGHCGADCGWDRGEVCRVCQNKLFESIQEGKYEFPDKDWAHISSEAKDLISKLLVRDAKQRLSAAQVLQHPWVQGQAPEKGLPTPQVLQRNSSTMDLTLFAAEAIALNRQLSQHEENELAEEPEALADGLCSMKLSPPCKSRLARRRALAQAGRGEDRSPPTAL

Key:
Experiment in all cases: number of time points (of 5) at which kinase-Nluc abundance scored as decreased, DMSO-normalised (count); higher = more persistent destabilization
Settings in all cases: K562; 2-18 h
[1] = target: FLT3 (UniProt P36888)
[2] = target: FYN (UniProt P06241)
[3] = target: GSK3A (UniProt P49840)
[4] = target: HER2 (UniProt P04626)
[5] = target: INSRR (UniProt P14616)
[6] = target: IRAK3 (UniProt Q9Y616)
[7] = target: JAK1 (UniProt P23458)
[8] = target: LCK (UniProt P06239)
[9] = target: LIMK1 (UniProt P53667)
[10] = target: LIMK2 (UniProt P53671)
[11] = target: LMTK2 (UniProt Q8IWU2)
[12] = target: LYN (UniProt P07948)
[13] = target: MAP2K1 (UniProt Q02750)
[14] = target: MAP2K2 (UniProt P36507)
[15] = target: MAP4K2 (UniProt Q12851)
[16] = target: MAPK1 (UniProt P28482)
[17] = target: MAPK4 (UniProt P31152)
[18] = target: MAPKAPK2 (UniProt P49137)
[19] = target: MKNK1 (UniProt Q9BUB5)
[20] = target: NTRK2 (UniProt Q16620)

Measured: number of time points

Cc1cccc(Cn2nc(C)c3c(NC(=O)c4csc5c(N)ncnc45)cccc32)n1 (10 µM)
0: [1] | [2] | [3] | [4] | [5] | [6] | [7] | [8] | [9] | [10] | [11] | [12] | [13] | [14] | [15] | [16] | [17] | [18] | [19] | [20]

O=C(N=c1sccn1Cc1ccccc1)c1c[nH]c2ncccc12 (10 µM)
0: [1] | [2] | [3] | [4] | [5] | [6] | [7] | [8] | [9] | [10] | [11] | [12] | [13] | [14] | [15] | [16] | [17] | [18] | [19] | [20]

O=c1sn(-c2cccc3ccccc23)c(=O)n1Cc1ccccc1 [Tideglusib] (10 µM)
0: [1] | [2] | [3] | [4] | [5] | [6] | [7] | [8] | [9] | [10] | [11] | [12] | [13] | [14] | [15] | [16] | [17] | [18] | [19] | [20]

Cn1cc(C2=C(c3c4n(c5ccccc35)CCC(CN)C4)C(=O)NC2=O)c2ccccc21 (stereo not given) [Bisindolylmaleimide X (hydrochloride)] (2.5 µM)
0: [1] | [2] | [3] | [4] | [5] | [6] | [7] | [8] | [9] | [10] | [11] | [12] | [13] | [14] | [15] | [16] | [17] | [18] | [19] | [20]

CCn1c(-c2nonc2N)nc2c(C#CCO)ncc(OCCCN)c21 [AKT Kinase Inhibitor] (10 µM)
3: [2]
0: [1] | [3] | [4] | [5] | [6] | [7] | [8] | [9] | [10] | [11] | [12] | [13] | [14] | [15] | [16] | [17] | [18] | [19] | [20]

O=c1cc(-c2ccc(O)cc2)oc2cc(O)c([C@@H]3O[C@H](CO)[C@@H](O)[C@H](O)[C@H]3O)c(O)c12 [Isovitexin] (10 µM)
0: [1] | [2] | [3] | [4] | [5] | [6] | [7] | [8] | [9] | [10] | [11] | [12] | [13] | [14] | [15] | [16] | [17] | [18] | [19] | [20]

C=CC(=O)N1CCC[C@@H](n2c(=O)n(-c3ccc(Oc4ccccc4)cc3)c3c(N)nccc32)C1 [Tolebrutinib] (10 µM)
0: [1] | [2] | [3] | [4] | [5] | [6] | [7] | [8] | [9] | [10] | [11] | [12] | [13] | [14] | [15] | [16] | [17] | [18] | [19] | [20]

Cc1c(Br)c(Br)c2c3c1nc(N1CCNCC1)n3CCC2 [SEL120-34A (monohydrochloride)] (2.5 µM)
0: [1] | [2] | [3] | [4] | [5] | [6] | [7] | [8] | [9] | [10] | [11] | [12] | [13] | [14] | [15] | [16] | [17] | [18] | [19] | [20]

CN1CCN(c2ccc(NC(=O)c3ccc(C#N)o3)c(N3CCCCC3)c2)CC1 (10 µM)
0: [1] | [2] | [3] | [4] | [5] | [6] | [7] | [8] | [9] | [10] | [11] | [12] | [13] | [14] | [15] | [16] | [17] | [18] | [19] | [20]

C=CC(=O)N1CCN(c2nc(OC[C@@H]3CCCN3C)nc3c2CCN(c2cccc4cccc(C)c24)C3)C[C@@H]1CC#N (2.5 µM)
0: [1] | [2] | [3] | [4] | [5] | [6] | [7] | [8] | [9] | [10] | [11] | [12] | [13] | [14] | [15] | [16] | [17] | [18] | [19] | [20]

3 entries already listed, sorted by number of heavy atoms, high to low.
C=CC(=O)N1CCN(c2nc(OC[C@@H]3CCCN3C)nc3c2CCN(c2cccc4cccc(C)c24)C3)C[C@@H]1CC#N (2.5 µM)
0: [1] | [2] | [3] | [4] | [5] | [6] | [7] | [8] | [9] | [10] | [11] | [12] | [13] | [14] | [15] | [16] | [17] | [18] | [19] | [20]

Cn1cc(C2=C(c3c4n(c5ccccc35)CCC(CN)C4)C(=O)NC2=O)c2ccccc21 (stereo not given) [Bisindolylmaleimide X (hydrochloride)] (2.5 µM)
0: [1] | [2] | [3] | [4] | [5] | [6] | [7] | [8] | [9] | [10] | [11] | [12] | [13] | [14] | [15] | [16] | [17] | [18] | [19] | [20]

O=c1cc(-c2ccc(O)cc2)oc2cc(O)c([C@@H]3O[C@H](CO)[C@@H](O)[C@H](O)[C@H]3O)c(O)c12 [Isovitexin] (10 µM)
0: [1] | [2] | [3] | [4] | [5] | [6] | [7] | [8] | [9] | [10] | [11] | [12] | [13] | [14] | [15] | [16] | [17] | [18] | [19] | [20]

(cont.)

O=C1c2cccc(O)c2C(=O)c2c(O)cccc21 [Danthron] (10 µM)
0: [1] | [2] | [3] | [4] | [5] | [6] | [7] | [8] | [9] | [10] | [11] | [12] | [13] | [14] | [15] | [16] | [17] | [18] | [19] | [20]

CC(=O)Nc1nc(C)c(-c2cc3c(c(S(C)(=O)=O)c2)C(=O)N([C@@H](C)C2CC2)C3)s1 (2.5 µM)
0: [1] | [2] | [3] | [4] | [5] | [6] | [7] | [8] | [9] | [10] | [11] | [12] | [13] | [14] | [15] | [16] | [17] | [18] | [19] | [20]

Cc1ncc(F)c(Nc2n[nH]c3c2CN(C(=O)N2C[C@@H](C)N(CC4CCOCC4)C[C@@H]2C)C3(C)C)n1 (10 µM)
0: [1] | [2] | [3] | [4] | [5] | [6] | [7] | [8] | [9] | [10] | [11] | [12] | [13] | [14] | [15] | [16] | [17] | [18] | [19] | [20]

CC1=C(C(=O)Nc2ccc3[nH]ncc3c2)C(c2ccc(F)c(C(=O)NCc3ccccn3)c2)NC(=O)N1 (stereo not given) (10 µM)
0: [1] | [2] | [3] | [4] | [5] | [6] | [7] | [8] | [9] | [10] | [11] | [12] | [13] | [14] | [15] | [16] | [17] | [18] | [19] | [20]

CC(=O)c1cc(O)ccc1O [2,5-Dihydroxyacetophenone] (10 µM)
0: [1] | [2] | [3] | [4] | [5] | [6] | [7] | [8] | [9] | [10] | [11] | [12] | [13] | [14] | [15] | [16] | [17] | [18] | [19] | [20]

O=C(CC(c1ccccc1)C(C(=O)O)C(=O)O)c1ccc(C(F)(F)F)cc1 (stereo not given) (10 µM)
0: [1] | [2] | [3] | [4] | [5] | [6] | [7] | [8] | [9] | [10] | [11] | [12] | [13] | [14] | [15] | [16] | [17] | [18] | [19] | [20]
